Test results published in the supplement of paper PMC10032668.
The other results are listed elsewhere or left out. Only hits are listed; about a third recur on repeated control peptides.

Amino acid sequences for entries named in this document (tags omitted).
CUL4A, Q13619, UniProt Q13619, whole entry: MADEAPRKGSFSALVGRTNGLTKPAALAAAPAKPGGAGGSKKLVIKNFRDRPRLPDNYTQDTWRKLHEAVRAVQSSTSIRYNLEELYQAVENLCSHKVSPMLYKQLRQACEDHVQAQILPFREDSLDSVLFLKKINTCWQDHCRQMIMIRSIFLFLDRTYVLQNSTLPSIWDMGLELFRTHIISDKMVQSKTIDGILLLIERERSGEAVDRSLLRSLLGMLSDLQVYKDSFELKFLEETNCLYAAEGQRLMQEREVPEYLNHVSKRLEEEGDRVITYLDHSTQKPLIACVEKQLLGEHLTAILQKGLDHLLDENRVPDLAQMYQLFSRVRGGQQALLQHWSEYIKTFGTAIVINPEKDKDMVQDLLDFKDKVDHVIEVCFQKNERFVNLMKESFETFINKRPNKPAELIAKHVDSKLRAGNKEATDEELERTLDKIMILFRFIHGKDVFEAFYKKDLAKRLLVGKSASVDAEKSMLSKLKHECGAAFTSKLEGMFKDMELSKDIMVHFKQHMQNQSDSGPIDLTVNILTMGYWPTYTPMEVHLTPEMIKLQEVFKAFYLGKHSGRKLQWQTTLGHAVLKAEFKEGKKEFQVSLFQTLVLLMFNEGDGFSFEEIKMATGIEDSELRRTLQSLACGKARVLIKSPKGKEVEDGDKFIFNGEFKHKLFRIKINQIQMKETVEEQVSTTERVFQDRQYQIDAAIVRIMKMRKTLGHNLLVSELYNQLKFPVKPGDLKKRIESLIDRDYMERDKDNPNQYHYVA
EIF3A, Q14152, UniProt Q14152, whole entry: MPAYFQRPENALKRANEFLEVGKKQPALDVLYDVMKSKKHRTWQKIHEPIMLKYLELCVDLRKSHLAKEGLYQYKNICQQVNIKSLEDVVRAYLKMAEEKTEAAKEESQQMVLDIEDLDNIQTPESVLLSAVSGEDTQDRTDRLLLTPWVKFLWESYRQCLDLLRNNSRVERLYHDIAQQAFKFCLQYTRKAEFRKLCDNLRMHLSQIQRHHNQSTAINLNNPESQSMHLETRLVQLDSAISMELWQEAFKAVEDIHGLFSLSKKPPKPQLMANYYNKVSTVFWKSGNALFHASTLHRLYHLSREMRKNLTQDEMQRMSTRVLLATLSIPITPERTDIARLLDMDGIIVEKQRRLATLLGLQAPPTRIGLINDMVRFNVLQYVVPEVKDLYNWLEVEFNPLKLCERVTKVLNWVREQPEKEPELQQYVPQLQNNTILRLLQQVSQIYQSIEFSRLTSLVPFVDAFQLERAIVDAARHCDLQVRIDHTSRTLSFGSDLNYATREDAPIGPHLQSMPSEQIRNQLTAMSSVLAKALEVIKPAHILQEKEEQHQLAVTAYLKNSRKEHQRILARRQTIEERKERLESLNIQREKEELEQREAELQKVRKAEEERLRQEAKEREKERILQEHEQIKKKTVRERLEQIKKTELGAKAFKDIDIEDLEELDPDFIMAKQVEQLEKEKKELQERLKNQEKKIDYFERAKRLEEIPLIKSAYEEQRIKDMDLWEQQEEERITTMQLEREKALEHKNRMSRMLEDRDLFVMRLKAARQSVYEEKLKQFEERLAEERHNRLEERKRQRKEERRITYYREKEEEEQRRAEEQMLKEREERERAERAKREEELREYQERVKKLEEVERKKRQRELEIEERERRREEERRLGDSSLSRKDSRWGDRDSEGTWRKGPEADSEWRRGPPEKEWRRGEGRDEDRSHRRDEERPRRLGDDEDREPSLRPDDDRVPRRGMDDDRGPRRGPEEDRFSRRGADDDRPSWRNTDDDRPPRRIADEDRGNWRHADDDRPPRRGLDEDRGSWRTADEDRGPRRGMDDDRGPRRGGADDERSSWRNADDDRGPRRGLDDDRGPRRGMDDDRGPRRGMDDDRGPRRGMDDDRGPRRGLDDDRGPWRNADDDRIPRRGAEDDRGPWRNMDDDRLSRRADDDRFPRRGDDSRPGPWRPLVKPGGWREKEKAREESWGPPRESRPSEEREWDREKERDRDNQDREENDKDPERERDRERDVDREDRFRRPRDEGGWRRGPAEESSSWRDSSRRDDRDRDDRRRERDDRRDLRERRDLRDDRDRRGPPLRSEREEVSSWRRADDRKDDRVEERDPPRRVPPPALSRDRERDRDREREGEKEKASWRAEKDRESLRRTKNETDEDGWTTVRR
SMARCA5, O60264, UniProt O60264, whole entry: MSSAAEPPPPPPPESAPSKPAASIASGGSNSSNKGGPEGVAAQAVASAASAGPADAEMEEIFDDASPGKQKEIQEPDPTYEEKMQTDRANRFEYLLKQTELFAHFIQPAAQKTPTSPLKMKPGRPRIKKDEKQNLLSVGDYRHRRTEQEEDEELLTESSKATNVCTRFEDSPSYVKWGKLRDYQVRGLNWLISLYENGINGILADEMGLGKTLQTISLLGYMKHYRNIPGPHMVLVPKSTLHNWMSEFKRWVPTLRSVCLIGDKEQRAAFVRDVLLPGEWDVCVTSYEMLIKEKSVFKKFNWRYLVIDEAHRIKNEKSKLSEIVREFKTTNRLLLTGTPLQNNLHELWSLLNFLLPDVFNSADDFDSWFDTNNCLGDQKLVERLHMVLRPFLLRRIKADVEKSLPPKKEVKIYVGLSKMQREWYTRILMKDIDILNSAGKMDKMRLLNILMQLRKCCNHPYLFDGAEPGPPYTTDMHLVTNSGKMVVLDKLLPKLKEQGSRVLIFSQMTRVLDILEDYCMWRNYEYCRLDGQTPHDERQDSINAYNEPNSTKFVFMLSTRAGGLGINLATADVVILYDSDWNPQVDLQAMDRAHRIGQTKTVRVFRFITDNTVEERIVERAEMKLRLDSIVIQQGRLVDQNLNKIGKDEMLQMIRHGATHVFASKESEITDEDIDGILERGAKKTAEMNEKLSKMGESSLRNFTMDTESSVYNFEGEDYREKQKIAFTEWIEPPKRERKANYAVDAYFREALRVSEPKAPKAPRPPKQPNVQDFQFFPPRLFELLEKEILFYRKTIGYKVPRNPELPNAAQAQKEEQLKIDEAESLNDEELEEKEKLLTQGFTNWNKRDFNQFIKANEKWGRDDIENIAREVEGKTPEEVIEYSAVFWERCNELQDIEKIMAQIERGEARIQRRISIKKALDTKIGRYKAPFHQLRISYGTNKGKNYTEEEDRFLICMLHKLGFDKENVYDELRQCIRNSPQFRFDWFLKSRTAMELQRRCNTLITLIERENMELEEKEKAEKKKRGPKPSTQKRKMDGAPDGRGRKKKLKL
TUBB6, Q9BUF5, UniProt Q9BUF5, whole entry: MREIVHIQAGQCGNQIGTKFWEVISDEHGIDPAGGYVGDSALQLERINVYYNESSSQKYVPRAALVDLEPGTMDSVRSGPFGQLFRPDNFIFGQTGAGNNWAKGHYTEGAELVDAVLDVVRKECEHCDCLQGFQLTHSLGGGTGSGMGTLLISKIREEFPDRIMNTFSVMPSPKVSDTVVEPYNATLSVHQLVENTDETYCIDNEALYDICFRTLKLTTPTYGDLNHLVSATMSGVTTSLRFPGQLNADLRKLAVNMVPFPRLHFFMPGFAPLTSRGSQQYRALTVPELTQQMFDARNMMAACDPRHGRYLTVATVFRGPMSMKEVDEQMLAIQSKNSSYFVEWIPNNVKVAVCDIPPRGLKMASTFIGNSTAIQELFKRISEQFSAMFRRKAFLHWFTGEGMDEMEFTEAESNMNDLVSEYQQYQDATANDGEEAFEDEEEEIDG
CKS2, P33552, UniProt P33552, whole entry: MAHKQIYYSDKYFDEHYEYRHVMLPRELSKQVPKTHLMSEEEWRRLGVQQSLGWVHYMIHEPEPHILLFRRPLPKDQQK
NDUFA5, Q16718, UniProt Q16718, whole entry: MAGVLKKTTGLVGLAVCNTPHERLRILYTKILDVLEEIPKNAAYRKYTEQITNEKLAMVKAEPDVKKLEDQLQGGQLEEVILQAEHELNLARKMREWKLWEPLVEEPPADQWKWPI
POLE, Q07864, UniProt Q07864, whole entry: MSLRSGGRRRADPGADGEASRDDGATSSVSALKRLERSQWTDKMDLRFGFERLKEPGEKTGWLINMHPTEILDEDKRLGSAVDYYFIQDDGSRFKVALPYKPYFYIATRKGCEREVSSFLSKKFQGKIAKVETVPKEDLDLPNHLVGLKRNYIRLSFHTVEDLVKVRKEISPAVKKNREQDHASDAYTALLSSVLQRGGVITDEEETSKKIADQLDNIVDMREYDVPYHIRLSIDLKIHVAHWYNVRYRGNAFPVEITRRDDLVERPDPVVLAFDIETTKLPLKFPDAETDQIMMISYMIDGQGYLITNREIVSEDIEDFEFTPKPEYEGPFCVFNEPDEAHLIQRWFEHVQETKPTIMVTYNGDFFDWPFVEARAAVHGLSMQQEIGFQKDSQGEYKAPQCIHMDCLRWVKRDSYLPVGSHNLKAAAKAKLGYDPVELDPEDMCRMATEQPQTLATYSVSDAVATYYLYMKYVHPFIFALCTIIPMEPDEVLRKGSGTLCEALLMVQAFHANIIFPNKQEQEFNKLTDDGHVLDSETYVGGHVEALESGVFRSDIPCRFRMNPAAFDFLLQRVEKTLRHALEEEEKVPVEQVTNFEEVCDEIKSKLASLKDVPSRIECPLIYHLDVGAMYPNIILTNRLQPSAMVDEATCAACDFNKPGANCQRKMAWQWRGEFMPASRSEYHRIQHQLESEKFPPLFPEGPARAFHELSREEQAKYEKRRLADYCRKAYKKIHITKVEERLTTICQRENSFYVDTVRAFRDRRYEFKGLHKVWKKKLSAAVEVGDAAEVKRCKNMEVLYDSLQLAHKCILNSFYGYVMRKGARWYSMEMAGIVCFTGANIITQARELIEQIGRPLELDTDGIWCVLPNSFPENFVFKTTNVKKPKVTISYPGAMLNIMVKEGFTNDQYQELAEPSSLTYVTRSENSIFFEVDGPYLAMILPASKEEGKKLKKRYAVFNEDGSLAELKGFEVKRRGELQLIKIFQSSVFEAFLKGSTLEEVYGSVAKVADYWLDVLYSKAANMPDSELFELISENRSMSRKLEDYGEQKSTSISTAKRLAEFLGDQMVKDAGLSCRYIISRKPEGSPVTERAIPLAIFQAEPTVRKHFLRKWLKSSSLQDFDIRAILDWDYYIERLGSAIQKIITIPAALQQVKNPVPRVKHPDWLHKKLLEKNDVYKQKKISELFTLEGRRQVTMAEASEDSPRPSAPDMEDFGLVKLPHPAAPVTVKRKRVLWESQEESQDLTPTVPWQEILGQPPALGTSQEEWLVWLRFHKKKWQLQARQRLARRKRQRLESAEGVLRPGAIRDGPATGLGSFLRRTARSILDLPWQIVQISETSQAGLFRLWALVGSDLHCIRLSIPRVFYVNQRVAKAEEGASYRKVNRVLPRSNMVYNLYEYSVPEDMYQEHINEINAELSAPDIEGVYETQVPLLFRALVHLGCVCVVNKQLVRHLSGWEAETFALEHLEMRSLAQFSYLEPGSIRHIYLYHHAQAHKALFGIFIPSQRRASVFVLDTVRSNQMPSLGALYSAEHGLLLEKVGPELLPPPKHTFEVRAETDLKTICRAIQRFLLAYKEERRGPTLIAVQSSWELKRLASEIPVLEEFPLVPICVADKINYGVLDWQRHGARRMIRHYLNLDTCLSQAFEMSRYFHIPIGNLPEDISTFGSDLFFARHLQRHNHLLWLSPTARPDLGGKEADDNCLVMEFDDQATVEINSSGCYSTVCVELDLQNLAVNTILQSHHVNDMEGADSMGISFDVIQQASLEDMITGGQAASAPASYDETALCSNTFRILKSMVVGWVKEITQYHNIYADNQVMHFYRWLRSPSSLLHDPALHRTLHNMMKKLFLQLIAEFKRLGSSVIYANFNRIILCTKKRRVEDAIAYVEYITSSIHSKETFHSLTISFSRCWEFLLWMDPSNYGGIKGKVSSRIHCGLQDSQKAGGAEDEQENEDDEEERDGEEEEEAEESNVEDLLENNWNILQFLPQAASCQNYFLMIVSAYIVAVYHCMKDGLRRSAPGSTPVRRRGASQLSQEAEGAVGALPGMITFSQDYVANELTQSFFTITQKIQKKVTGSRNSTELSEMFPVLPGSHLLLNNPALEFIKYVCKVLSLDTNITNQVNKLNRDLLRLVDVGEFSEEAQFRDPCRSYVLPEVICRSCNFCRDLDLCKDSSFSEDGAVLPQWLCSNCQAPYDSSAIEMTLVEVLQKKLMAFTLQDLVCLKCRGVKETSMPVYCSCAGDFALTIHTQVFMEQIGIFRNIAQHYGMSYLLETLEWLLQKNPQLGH
PSMC3, P17980, UniProt P17980, whole entry: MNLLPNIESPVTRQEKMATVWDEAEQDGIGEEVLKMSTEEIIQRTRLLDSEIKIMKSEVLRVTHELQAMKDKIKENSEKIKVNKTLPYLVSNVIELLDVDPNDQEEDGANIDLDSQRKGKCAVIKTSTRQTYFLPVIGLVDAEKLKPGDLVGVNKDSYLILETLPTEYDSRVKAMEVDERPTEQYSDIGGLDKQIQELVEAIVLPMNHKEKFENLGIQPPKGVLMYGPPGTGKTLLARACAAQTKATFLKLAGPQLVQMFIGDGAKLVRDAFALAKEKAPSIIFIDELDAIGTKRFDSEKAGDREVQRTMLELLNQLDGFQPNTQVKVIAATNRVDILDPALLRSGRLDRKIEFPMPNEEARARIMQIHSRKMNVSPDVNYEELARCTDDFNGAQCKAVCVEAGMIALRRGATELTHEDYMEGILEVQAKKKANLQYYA

Legend:
Assay in all cases: PRISMA enrichment of interactor (LFQ) in peptide spot vs all other peptide spots (log2 fold change); higher = stronger / more specific binding of the interactor to the peptide
ADNP, Q9H2P0 = target: ADNP, Q9H2P0
Experimental: (§1)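 PRISMA: 15-aa overlapping tiles (offset 8 aa) of 60 microproteins, plus SOS1/GLUT1 control peptides, were spot-synthesized on cellulose membranes in triplicate. Membranes were incubated with benzonase-treated HEK293T lysate, and bound proteins were identified by LC-MS/MS with LFQ. Enrichment is the log2 fold change of each protein in one spot versus all other spots. Only interactors passing the significance cutoff are listed.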

ADRM1, Q16186 = target: ADRM1, Q16186
Experimental: as §1

ALDH18A1, P54886 = target: ALDH18A1, P54886
Experimental: as §1

ATP2A2, P16615 = target: ATP2A2, P16615
Experimental: as §1

ATXN10, Q9UBB4 = target: ATXN10, Q9UBB4
Experimental: as §1

CHTOP, Q9Y3Y2 = target: CHTOP, Q9Y3Y2
Experimental: as §1

CUL4A, Q13619 = target: CUL4A, Q13619
Experimental: as §1

EIF3A, Q14152 = target: EIF3A, Q14152
Experimental: as §1

EIF4E, P06730 = target: EIF4E, P06730
Experimental: as §1

MRPL4, Q9BYD3 = target: MRPL4, Q9BYD3
Experimental: as §1

MRPL50, Q8N5N7 = target: MRPL50, Q8N5N7
Experimental: as §1

NAP1L1, P55209 = target: NAP1L1, P55209
Experimental: as §1

PTCD3, Q96EY7 = target: PTCD3, Q96EY7
Experimental: as §1

RBM8A, Q9Y5S9 = target: RBM8A, Q9Y5S9
Experimental: as §1

SMARCA5, O60264 = target: SMARCA5, O60264
Experimental: as §1

SMPD4, Q9NXE4 = target: SMPD4, Q9NXE4
Experimental: as §1

TFIP11, Q9UBB9 = target: TFIP11, Q9UBB9
Experimental: as §1

TOP2A, P11388 = target: TOP2A, P11388
Experimental: as §1

TUBB4A, P04350 = target: TUBB4A, P04350
Experimental: as §1

TUBB6, Q9BUF5 = target: TUBB6, Q9BUF5
Experimental: as §1

WDR46, O15213 = target: WDR46, O15213
Experimental: as §1

AK4, P27144 = target: AK4, P27144
Experimental: as §1

AP3B1, O00203 = target: AP3B1, O00203
Experimental: as §1

ATP5PD, O75947 = target: ATP5PD, O75947
Experimental: as §1

BAG2, O95816 = target: BAG2, O95816
Experimental: as §1

CENPE, Q02224 = target: CENPE, Q02224
Experimental: as §1

CKS2, P33552 = target: CKS2, P33552
Experimental: as §1

DDX18, Q9NVP1 = target: DDX18, Q9NVP1
Experimental: as §1

DNAJA2, O60884 = target: DNAJA2, O60884
Experimental: as §1

EIF5, P55010 = target: EIF5, P55010
Experimental: as §1

FLII, Q13045 = target: FLII, Q13045
Experimental: as §1

HLA-B = target: HLA-B
Experimental: as §1

IGLC3, P0DOY3 = target: IGLC3, P0DOY3
Experimental: as §1

INTS3, Q68E01 = target: INTS3, Q68E01
Experimental: as §1

MAP7, Q14244 = target: MAP7, Q14244
Experimental: as §1

MAPK1, P28482 = target: MAPK1, P28482
Experimental: as §1

MKI67, P46013 = target: MKI67, P46013
Experimental: as §1

MRPL11, Q9Y3B7 = target: MRPL11, Q9Y3B7
Experimental: as §1

MRPL19, P49406 = target: MRPL19, P49406
Experimental: as §1

MRPS7, Q9Y2R9 = target: MRPS7, Q9Y2R9
Experimental: as §1

NDUFA5, Q16718 = target: NDUFA5, Q16718
Experimental: as §1

NKAP, Q8N5F7 = target: NKAP, Q8N5F7
Experimental: as §1

NSA2, O95478 = target: NSA2, O95478
Experimental: as §1

ODF2, Q5BJF6 = target: ODF2, Q5BJF6
Experimental: as §1

PCM1, Q15154 = target: PCM1, Q15154
Experimental: as §1

POLE, Q07864 = target: POLE, Q07864
Experimental: as §1

PPIL2, Q13356 = target: PPIL2, Q13356
Experimental: as §1

PPP2R5D, Q14738 = target: PPP2R5D, Q14738
Experimental: as §1

PSMC3, P17980 = target: PSMC3, P17980
Experimental: as §1

PUM1, Q14671 = target: PUM1, Q14671
Experimental: as §1

RPUSD4, Q96CM3 = target: RPUSD4, Q96CM3
Experimental: as §1

RTCB, Q9Y3I0 = target: RTCB, Q9Y3I0
Experimental: as §1

SDAD1, Q9NVU7 = target: SDAD1, Q9NVU7
Experimental: as §1

SEC63, Q9UGP8 = target: SEC63, Q9UGP8
Experimental: as §1

SMARCAD1, Q9H4L7 = target: SMARCAD1, Q9H4L7
Experimental: as §1

SNRNP70, P08621 = target: SNRNP70, P08621
Experimental: as §1

SYAP1, Q96A49 = target: SYAP1, Q96A49
Experimental: as §1

TRMT5, Q32P41 = target: TRMT5, Q32P41
Experimental: as §1

ZFC3H1, O60293 = target: ZFC3H1, O60293
Experimental: as §1

ZNF207, O43670 = target: ZNF207, O43670
Experimental: as §1

Binder: ASWVSRTSPADVAGP [RP11-432J24.5_2]
- PRISMA enrichment of interactor (log2) (ADNP, Q9H2P0): 5.54
- PRISMA enrichment of interactor (log2) (ADRM1, Q16186): 4.96
- PRISMA enrichment of interactor (log2) (ALDH18A1, P54886): 4.45
- PRISMA enrichment of interactor (log2) (ATP2A2, P16615): 4.58
- PRISMA enrichment of interactor (log2) (ATXN10, Q9UBB4): 8.8
- PRISMA enrichment of interactor (log2) (CHTOP, Q9Y3Y2): 6.43
- PRISMA enrichment of interactor (log2) (CUL4A, Q13619): 3.97
- PRISMA enrichment of interactor (log2) (EIF3A, Q14152): 5.19
- PRISMA enrichment of interactor (log2) (EIF4E, P06730): 5.27
- PRISMA enrichment of interactor (log2) (MRPL4, Q9BYD3): 4.1
- PRISMA enrichment of interactor (log2) (MRPL50, Q8N5N7): 5.5
- PRISMA enrichment of interactor (log2) (NAP1L1, P55209): 5.7
- PRISMA enrichment of interactor (log2) (PTCD3, Q96EY7): 5.72
- PRISMA enrichment of interactor (log2) (RBM8A, Q9Y5S9): 7.98
- PRISMA enrichment of interactor (log2) (SMARCA5, O60264): 4.56
- PRISMA enrichment of interactor (log2) (SMPD4, Q9NXE4): 7.5
- PRISMA enrichment of interactor (log2) (TFIP11, Q9UBB9): 7.11
- PRISMA enrichment of interactor (log2) (TOP2A, P11388): 7.46
- PRISMA enrichment of interactor (log2) (TUBB4A, P04350): 5.24
- PRISMA enrichment of interactor (log2) (TUBB6, Q9BUF5): 4.46
- PRISMA enrichment of interactor (log2) (WDR46, O15213): 6.4

Binder: EMVMLVAPFRQSSSL [IDI2-AS1]
- PRISMA enrichment of interactor (log2) (ADNP, Q9H2P0): 7.25
- PRISMA enrichment of interactor (log2) (AK4, P27144): 6.07
- PRISMA enrichment of interactor (log2) (AP3B1, O00203): 5.23
- PRISMA enrichment of interactor (log2) (ATP5PD, O75947): 4.68
- PRISMA enrichment of interactor (log2) (BAG2, O95816): 4.42
- PRISMA enrichment of interactor (log2) (CENPE, Q02224): 6.96
- PRISMA enrichment of interactor (log2) (CKS2, P33552): 5.83
- PRISMA enrichment of interactor (log2) (DDX18, Q9NVP1): 4.82
- PRISMA enrichment of interactor (log2) (DNAJA2, O60884): 12.2
- PRISMA enrichment of interactor (log2) (EIF5, P55010): 5.57
- PRISMA enrichment of interactor (log2) (FLII, Q13045): 6.84
- PRISMA enrichment of interactor (log2) (HLA-B): 6.83
- PRISMA enrichment of interactor (log2) (IGLC3, P0DOY3): 10.7
- PRISMA enrichment of interactor (log2) (INTS3, Q68E01): 3.69
- PRISMA enrichment of interactor (log2) (MAP7, Q14244): 4.35
- PRISMA enrichment of interactor (log2) (MAPK1, P28482): 5.1
- PRISMA enrichment of interactor (log2) (MKI67, P46013): 5.59
- PRISMA enrichment of interactor (log2) (MRPL11, Q9Y3B7): 6.78
- PRISMA enrichment of interactor (log2) (MRPL19, P49406): 5.73
- PRISMA enrichment of interactor (log2) (MRPS7, Q9Y2R9): 5.9
- PRISMA enrichment of interactor (log2) (NDUFA5, Q16718): 8.25
- PRISMA enrichment of interactor (log2) (NKAP, Q8N5F7): 5.19
- PRISMA enrichment of interactor (log2) (NSA2, O95478): 5.9
- PRISMA enrichment of interactor (log2) (ODF2, Q5BJF6): 5.01
- PRISMA enrichment of interactor (log2) (PCM1, Q15154): 5.59
- PRISMA enrichment of interactor (log2) (POLE, Q07864): 5.19
- PRISMA enrichment of interactor (log2) (PPIL2, Q13356): 5.65
- PRISMA enrichment of interactor (log2) (PPP2R5D, Q14738): 8.23
- PRISMA enrichment of interactor (log2) (PSMC3, P17980): 4.8
- PRISMA enrichment of interactor (log2) (PUM1, Q14671): 4.86
- PRISMA enrichment of interactor (log2) (RPUSD4, Q96CM3): 6.08
- PRISMA enrichment of interactor (log2) (RTCB, Q9Y3I0): 5.19
- PRISMA enrichment of interactor (log2) (SDAD1, Q9NVU7): 8.88
- PRISMA enrichment of interactor (log2) (SEC63, Q9UGP8): 4.72
- PRISMA enrichment of interactor (log2) (SMARCAD1, Q9H4L7): 6.79
- PRISMA enrichment of interactor (log2) (SNRNP70, P08621): 5.8
- PRISMA enrichment of interactor (log2) (SYAP1, Q96A49): 4.21
- PRISMA enrichment of interactor (log2) (TRMT5, Q32P41): 8.6
- PRISMA enrichment of interactor (log2) (ZFC3H1, O60293): 4.17
- PRISMA enrichment of interactor (log2) (ZNF207, O43670): 5.14
